# Assay results reported in patent US20020137715.
# By UniProt entry, the sequences of proteins in these tests, tags left out. Residues count along the entry.
# UniProt O89090, 2-784: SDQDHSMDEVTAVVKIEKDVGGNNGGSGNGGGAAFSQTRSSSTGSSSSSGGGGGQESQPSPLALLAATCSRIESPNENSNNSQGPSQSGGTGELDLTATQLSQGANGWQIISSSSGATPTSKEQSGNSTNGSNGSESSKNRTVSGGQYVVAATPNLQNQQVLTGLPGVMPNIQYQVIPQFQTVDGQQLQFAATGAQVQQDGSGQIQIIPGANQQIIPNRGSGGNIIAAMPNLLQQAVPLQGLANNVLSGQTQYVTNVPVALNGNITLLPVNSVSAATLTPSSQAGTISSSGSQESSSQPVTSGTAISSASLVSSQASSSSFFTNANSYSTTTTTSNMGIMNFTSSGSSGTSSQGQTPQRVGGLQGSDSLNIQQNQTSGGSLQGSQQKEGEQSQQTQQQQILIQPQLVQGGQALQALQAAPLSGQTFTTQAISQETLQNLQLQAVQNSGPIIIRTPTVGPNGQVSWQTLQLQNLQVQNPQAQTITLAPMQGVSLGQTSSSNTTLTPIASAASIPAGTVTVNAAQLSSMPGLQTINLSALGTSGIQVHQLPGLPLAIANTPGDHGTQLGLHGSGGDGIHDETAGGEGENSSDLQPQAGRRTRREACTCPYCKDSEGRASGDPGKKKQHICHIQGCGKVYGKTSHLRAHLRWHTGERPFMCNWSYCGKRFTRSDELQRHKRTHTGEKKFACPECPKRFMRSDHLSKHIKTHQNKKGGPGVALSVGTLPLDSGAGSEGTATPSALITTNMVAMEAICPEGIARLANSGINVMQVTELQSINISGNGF
# How the values were obtained:
# Sp1 [1] = target: Sp1 (UniProt O89090); experiment: EMSA; conditions: protein details: endogenous, NIH 3T3 nuclear extract
# Sp1 [2] = target: Sp1 (UniProt O89090); experiment: activity in cells; conditions: mutant decoy in vivo, no effect on COL1A2 promoter activity; protein in cells; protein details: endogenous, skin of COL1A2/lux transgenic mice; variant of consensus Sp1 oligonucleotide (decoy)
Sequence,"binding result (Sp1 [1]; radiolabeled probe, complex supershifted by anti-Sp1 antibody, about 2% of control complex in antisense clone B, native 4% acrylamide gel, protein in an …)","binding result (Sp1 [1]; stated incapable of binding Sp1 as determined in EMSA, Sp1 source for this EMSA not stated, protein in an extract, variant of consensus Sp1 oligonucleotide (decoy))",activity on this sequence (Sp1 [2])
ATTCGATCGGGGCGGGGCGAGC (double strand) [consensus Sp1 oligonucleotide (decoy)],binds,–,–
ATTCGATCGTAGCGATGCGAGC (double strand) [mSp1 mutant oligonucleotide],–,no binding,not active

# A negative result means that nothing was seen under these conditions. For part of these data: At least one result comes from cells or an extract, where the contact may be indirect.
